Assay results: publication PMC5731996

The chains behind the UniProt entries cited, without tags or fusion partners. Residues count along the entry.
UniProt P16422, 24-314: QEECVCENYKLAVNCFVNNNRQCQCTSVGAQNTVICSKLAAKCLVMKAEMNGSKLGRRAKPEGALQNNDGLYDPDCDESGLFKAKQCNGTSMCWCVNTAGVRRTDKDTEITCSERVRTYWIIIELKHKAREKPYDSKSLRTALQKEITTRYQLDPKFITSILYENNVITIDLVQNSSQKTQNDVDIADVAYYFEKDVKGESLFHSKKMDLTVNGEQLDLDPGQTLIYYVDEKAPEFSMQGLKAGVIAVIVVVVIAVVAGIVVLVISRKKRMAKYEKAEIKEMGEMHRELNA

Target: EpCAM on KATO III cells (UniProt P16422)
Test: flow cytometry on cells
Conditions: no fluorescent signal on KATO III; PBS, 5 mM MgCl2; aptamer folded at 95 C then ice; 1 h at 37 C; Kd: 10 nM EpCAM, 10-400 nM Ep1; pH not stated; protein on the cell surface; label: Cy5.5; single-stranded DNA

“CCCTACCTAGGTTCGAATGACCGAGTAACCCACCACCGCAGACCTGCCCAACATACGCTATCCTTAAGCC [Nonspecific sequence (NS), Cy5.5-labeled]”: no binding.

The exact form of at least one protein or probe is not confirmed. Where cells or extracts were used, other partners may take part. No signal at the amounts used counts as a negative.
